Measurements: patent publication US20170042883A1, “Methods for Detecting and Treating Rhinovirus Infection” (The Procter & Gamble Company, priority 2011, published 2017)
For at least one compound, name, drawing or mass did not settle the structure. Some entries repeat one wording, which the source may state once for all of them.

System: rhinovirus infection-induced inflammatory markers (IL-6, IP-10, and RANTES) in BEAS-2B
Test: rhinovirus infection-induced inflammatory markers in RV-16 infected BEAS-2B cells
Assay type: cell-based, human
Conditions: result in words
Protocol: The effect of various identified compounds on rhinovirus infection-induced inflammatory markers (IL-6, IP-10, and RANTES) in the human bronchial epithelia cell line, BEAS-2B, was evaluated. Kaempferol, luteolin, quercetin, scutellarein, all-transretinoic acid, 3-hydroxyflavone, fustin, 3-methylquercetin, fisetin, apigenin, oxymetazoline HCl, chrysin, naringenin, pyrrolidinedithiocarbamate ammonium, 7-hydroxyflavone, myricetin, diosmetin, 4′,7-dihydroxyflavone, or eriodictyol was added to cell culture media at various doses at the time of RV-16 infection of BEAS-2B cells. IL-6, IP-10 and RANTES protein levels were measured three days post-infection. Cytotoxicity of the compounds was determined by the uptake of vital dye Rhinovirus infected BEAS-2B cells not exposed to the compounds served as a positive control, achieving maximum cytokine production. BEAS-2B cells not exposed to rhinovirus or the compounds served as a negative control. […] The study was repeated for a subset of compounds, and ibuprofen (20 µM) was added to the cell media with the compounds at the time of infection. IL-6, IP-10 and RANTES protein levels were measured two days post-infection.

Structure (SMILES) | anti-inflammatory effects in the rhinovirus infection mediated inflammation model
S=C(S)N1CCCC1 [pyrrolidinedithiocarbamate ammonium] | anti-inflammatory effects
O=c1cc(-c2ccccc2)oc2cc(O)cc(O)c12 [Chrysin] | anti-inflammatory effects
